Measured values as given in PubChem BioAssay AID493014 (National Center for Advancing Translational Sciences (NCATS), 2011).
This is one part of the list. Further columns of the screen follow, without active or inactive calls. Compounds called inactive in the main read-out are mostly missing here. The note in brackets gives the kind of curve behind each potency; many fits are weak.

Experiment: qHTS Assay to Find Inhibitors of Chronic Active B-Cell Receptor Signaling
Settings: ABC-DLBCL IkBa-CBG/CBR reporter, luminescence ratio (green luciferase fused to IkBa over red control in TMD8 lymphoma cells), 4 h
How it was run: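 Concentration-response series (up to 46 uM) were applied to TMD8 dual-reporter cells for 4 h at 37C with doxycycline. Green/red ratio, after filter-overlap correction, defined %Activity; red signal alone was normalised to basal cells and zero luminescence.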

[1] = measured here: CBR red luminescence, cell number
[2] = measured here: IkBa-CBG green luminescence

SMILES | AC50 [1] | AC50 [2]
COC(=O)N/N=C/c1cn(CCOc2ccccc2)c2ccccc12 | 11.2 µM [rising, partial curve, poor fit] | 
CCOc1nc(C)ccc1-c1noc(-c2ccccc2OC)n1 | 3.16 µM [rising, full curve] | 
COc1ccc(NC(=O)CCNC(=O)Cn2ccc3ccccc3c2=O)c(OC)c1 | 0.0731 µM [rising, full curve, poor fit] | 
c1csc(-c2nc(N3CCOCC3)c3ccccc3n2)c1 | 5.62 µM [falling, full curve, poor fit] | 
CCN1CCCC1Cn1cnc2c([nH]c3ccc(OC)cc32)c1=O (configuration not stated) | 7.08 µM [falling, partial curve, poor fit] | 
CC(NC(=O)COC(=O)c1ccc[nH]c1=O)c1ccccc1 (configuration not stated) | 18.4 µM [rising, single point] | 
O=C(NCCc1ccccc1Cl)C1CCC(=O)N(CCCc2ccccc2)C1 (configuration not stated) | 14.1 µM [falling, single point] | 
Cc1ccc2occ(/C=N/NC(N)=S)c(=O)c2c1 | 0.0259 µM [rising, full curve, poor fit] | 0.058 µM [rising, full curve]
COC(=O)C1=NN[C@H](C(=O)OC(C)(C)C)[C@H]1c1ccccc1 | 16.4 µM [rising, partial curve, poor fit] | 
c1ccc(COc2ccc(OCCOCCn3cncn3)cc2)cc1 | 29.1 µM [falling, single point] | 
O=C(COc1ccccc1)Nc1ccccc1Cl | 35.5 µM [falling, single point] | 
Cc1ccc2nc3c(c(Nc4ccccc4)c2c1)CCC3 | 14.1 µM [falling, partial curve] | 
CCN(CC)c1ccc(/C=C(\C#N)C(N)=S)cc1 |  | 12.6 µM [falling, partial curve, poor fit]
CCCSc1nn2c(=O)c3ccccc3nc2s1 | 5.17 µM [falling, full curve] | 
CCC(CC)C(=O)Nc1cc([N+](=O)[O-])ccc1Cl | 29.1 µM [falling, single point] | 
COc1ccc(C(=O)C[n+]2cc(Br)cc3ccccc32)cc1[N+](=O)[O-] | 0.562 µM [falling, full curve, poor fit] | 
CC1CN(S(=O)(=O)c2cccc(-c3csc(-c4ccccc4)n3)c2)CC(C)O1 (configuration not stated) | 29.1 µM [rising, single point] | 
COc1cc(OC)c2c(-c3cccc(-c4ccc(C(C)=O)cc4)c3)cc(=O)oc2c1 | 3.26 µM [rising, full curve] | 5.8 µM [falling, full curve]
CC1OC(OC2C(OC3C(O[C@H]4CC[C@]5(C)C6C=C[C@]78OC[C@@]9(CC[C@@H](C)[C@H](C)C97)[C@H](O)C[C@@]8(C)[C@]6(C)CC[C@H]5C4(C)C)OC(C)C(O)C3O)OC(CO)C(O)C2O)C(O)C(O)C1O (some centres not stated) | 35.5 µM [falling, single point] | 35.5 µM [rising, partial curve, poor fit]
CC(=O)Oc1ccc2c(c1)O/C(=C\c1ccncc1)C2=O | 10 µM [falling, partial curve] | 
COc1cc(NS(C)(=O)=O)c(OC)cc1NC(=O)c1cccc(F)c1 | 3.26 µM [falling, single point] | 

Copied from the list:
AC50 [1] with `Cc1ccc2occ(/C=N/NC(N)=S)c(=O)c2c1` is entered as 0.0259 µM [rising, full curve, poor fit]
AC50 [1] with `CC(NC(=O)COC(=O)c1ccc[nH]c1=O)c1ccccc1` (configuration not stated) is entered as 18.4 µM [rising, single point]

The results go on:

SMILES | AC50 [1] | AC50 [2]
Cn1c(CCNC(=O)c2ccco2)nc2cc(NC(=O)c3ccccc3)ccc21 | 2.51 µM [falling, partial curve, poor fit] | 
Fc1ccc(-n2ncc3c(NC4CCCCCC4)ncnc32)cc1 | 10 µM [falling, partial curve] | 
CCOC(CNC(=O)c1ccc2nc(N3CCC(C)CC3)sc2c1)OCC | 3.66 µM [falling, full curve] | 
CC(=O)c1cc(C(=O)Nc2ccc(C(=O)O)cc2)oc1C | 23.1 µM [falling, single point] | 
COCCN(CCOC)c1nc(-c2ccccc2)nc2ccccc12 | 35.5 µM [falling, single point] | 
Cc1ccc(NC2=C(Cl)C(=O)OC2OC(=O)c2ccco2)cc1 (configuration not stated) | 14.6 µM [falling, partial curve] | 
COc1ccc(S(=O)(=O)N2CCCCCC2)cc1C(=O)N1CCCCC1 | 1.26 µM [falling, full curve] | 
COc1cc2c(=O)n(Cc3ccccc3)c(=O)n(CC(=O)NCCc3ccccc3)c2cc1OC | 0.13 µM [falling, full curve, poor fit] | 
CCOC(=O)/C=C/CN(C(=O)OC(C)(C)C)S(=O)(=O)N1CC=CC1 | 0.112 µM [falling, full curve, poor fit] | 
Cc1ccc(N/C=C/C(=O)c2cccs2)cc1C | 11.2 µM [falling, partial curve] | 
COC(=O)Cc1nc(NC(=O)c2cccs2)sc1C | 10 µM [falling, partial curve] | 
CC(=O)c1sc2c(c1OC(=O)c1ccc(Cl)cc1Cl)c(=O)n(-c1ccccc1)c(=S)n2-c1ccccc1 | 5.01 µM [falling, full curve] | 3.98 µM [rising, full curve, poor fit]
COC(=O)N/N=C/c1cc(Br)ccc1O | 22.4 µM [falling, partial curve, poor fit] | 
COc1cccc(CNC(=O)c2cccc(NC(=O)C3=C(C)OCCS3)c2)c1 | 35.5 µM [falling, single point] | 
O=C(Nc1nccs1)C1CCCN1/C=C/C(=O)C(F)(F)F (configuration not stated) | 35.5 µM [rising, single point] | 
Cc1ccc(N2NC(=O)/C(=C/c3ccc(-c4ccc(Cl)c(C(=O)O)c4)o3)C2=O)cc1C | 15.8 µM [falling, single point] | 
CCc1ccc(C(O)(C(C)C)C(CN2CCOCC2)c2ccccc2)cc1 (configuration not stated) | 10 µM [falling, partial curve, poor fit] | 
Cn1cc(CC(=O)N2CCN(c3ccccc3F)CC2)c2ccccc21 | 6.51 µM [rising, single point] | 5.17 µM [falling, partial curve, poor fit]
NC(=S)N/N=C1\CC(n2nnn(-c3cccc(Cl)c3)c2=S)C2COC1O2 (configuration not stated) | 3.55 µM [falling, full curve] | 
CCOc1ccc(C2=CC(c3cccc(Br)c3)n3c(nc4ccccc43)N2)cc1Cl (configuration not stated) | 11.2 µM [falling, partial curve, poor fit] | 
COc1ccc(NC(=O)c2csc3c2CCCCC3)c(OC)c1 | 5.62 µM [rising, single point] | 

Entries of single compounds, looked up by structure.
CC(=O)c1cc(C(=O)Nc2ccc(C(=O)O)cc2)oc1C as listed: AC50 [1]: 23.1 µM [falling, single point]
COc1ccc(S(=O)(=O)N2CCCCCC2)cc1C(=O)N1CCCCC1 as listed: AC50 [1]: 1.26 µM [falling, full curve]
COC(=O)N/N=C/c1cn(CCOc2ccccc2)c2ccccc12 as listed: AC50 [1]: 11.2 µM [rising, partial curve, poor fit]

Next compounds

SMILES | AC50 [1] | AC50 [2]
NNc1nccc(Nc2ccccc2C(=O)O)n1 | 7.31 µM [falling, partial curve] | 
Cc1cccc(C(=O)NC(=S)N2CCN(C(=S)NC(=O)c3cccc(C)c3)CC2)c1 |  | 4.61 µM [falling, partial curve, poor fit]
O=C(COC(=O)CCCOc1ccc(Cl)cc1Cl)Nc1cccc(Cl)c1 | 4.11 µM [rising, full curve, poor fit] | 
COc1cccc(NC(=O)CN(C)C(=O)c2cccnc2Nc2cccc(C(F)(F)F)c2)c1 | 25.9 µM [falling, partial curve, poor fit] | 
CN(C)c1cccc(C(=O)NC2CCCCCC2)c1 | 16.4 µM [falling, partial curve] | 
O=C(NCc1cccs1)c1csc2ccccc12 | 1.46 µM [rising, full curve, poor fit] | 
Fc1ccc(C2CC(c3ccco3)=NN2c2ccccc2)cc1 (configuration not stated) | 0.562 µM [rising, partial curve, poor fit] | 
O=S(=O)(Nc1ccc(O)c(Sc2nc3ccccc3s2)c1)c1ccc(Cl)cc1 | 12.6 µM [falling, single point] | 
Cc1nc(-c2ccc(S(=O)(=O)NCC3CCN(C(=O)OC(C)(C)C)CC3)s2)cs1 | 0.0891 µM [rising, full curve, poor fit] | 
Cc1ncc(CN2CCCC(CCC(=O)NCc3ccccc3F)C2)s1 (configuration not stated) | 35.5 µM [rising, single point] | 
COc1ccc(S(=O)(=O)N2CCOCC2)cc1Br | 10 µM [rising, partial curve, poor fit] | 
O=C(c1cnn2c(C(F)(F)F)cc(-c3ccc4c(c3)OCO4)nc12)N1CCCCC1 | 20 µM [rising, single point] | 
CCN(CC)C(=O)C1CCCN(Cc2nc(-c3cnccn3)no2)C1 (configuration not stated) | 11.2 µM [rising, partial curve, poor fit] | 
Cn1c(O)c(N=Nc2ccccc2)c2ccccc21 | 1 µM [rising, full curve, poor fit] | 
O=C(/C=C/NNC(=O)c1ccccc1)c1ccc([N+](=O)[O-])cc1 | 6.31 µM [falling, single point] | 
CC(=O)Nc1ccc(S(=O)(=O)N[C@@H](C)C(=O)Nc2ccc(N3CCOCC3)cc2)cc1 | 35.5 µM [rising, partial curve, poor fit] | 
Cc1ccc(NC2CC(=O)N(Cc3ccccc3)C2=O)cc1 (configuration not stated) | 29.1 µM [rising, single point] | 
O=C1CC(c2ccccc2)CC(=O)N1c1ccc(C(F)(F)F)cc1 | 23.1 µM [rising, single point] | 
CC(=O)Nc1cccc(/C(C)=N/NC(=S)NC(C)C)c1 | 12.6 µM [rising, single point] | 
O=C(CS(=O)(=O)c1ccccc1)Nc1nc(-c2ccccc2)cs1 | 1.84 µM [rising, partial curve, poor fit] | 
